Experimental findings from the supplement of paper PMC8256030 are described below.

“And” between values parts separate entries of the source, which are not always exact repeats. Equal values may be shown once. The list shows a part of the results. This data set is noisy: repeats of one test often differ as much as different tests do.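 HEK293T cells were given each compound shortly before transfection with a reporter in which red mCherry is followed by the SARS-CoV-2 frameshift element and then GFP in the −1 frame, so GFP appears only after frameshifting.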

Assay [1] has as its system SARS-CoV-2 -1 PRF reporter mCherry-FSE-GFP(-1). The experiment in a line: mCherry (red) intensity as percent of control; higher = higher upstream reporter expression. The conditions noted are these: 10 µM; 24 h; HEK293T.
Assay [2] shares this test system. The experiment in a line: percent effect, decrease of GFP/mCherry ratio (-1 PRF reporter) relative to controls; higher = stronger frameshift inhibition. Conditions: 10 µM; 24 h; HEK293T.

Molecule `C=CC1=C(C(=O)O)N2C(=O)[C@@H](NC(=O)/C(=N\O)c3csc(N)n3)[C@H]2SC1` [Omnicef] returned a mCherry in assay [1] of 105%. Also, the percent effect in assay [2] is -3.3%.
As to `CC1(C)C[C@@H]1C(=O)N/C(=C\CCCCSC[C@H](N)C(=O)O)C(=O)O` [cilastatin], the mCherry in assay [1] amounted to 92.3%. For the same molecule, in assay [2], the percent effect amounted to 4.24%.
`CCN(CC)C(=O)[C@@]1(c2ccccc2)C[C@H]1CN` [Levomilnacipran] had a mCherry in assay [1] of 97.8%. Also, the percent effect in assay [2] was -2.3%.
The corresponding values for `CCCCn1c(=O)c2c(ncn2CC(C)=O)n(CCCC)c1=O` [denbufylline] are 79.3% and -0.497%.
The corresponding values for `CO[C@H]1C[C@@H]2CC[C@@H](C)[C@@](O)(O2)C(=O)C(=O)N2CCCC[C@H]2C(=O)O[C@H]([C@H](C)C[C@@H]2CC[C@@H](O)[C@H](OC)C2)CC(=O)[C@H](C)/C=C(\C)[C@@H](O)[C@@H](OC)C(=O)[C@H](C)C[C@H](C)/C=C/C=C/C=C/1C` are 117% and 4.99%.
Take `c1ccc(C(O[C@@H]2CCCN(CCc3ccc4c(c3)OCO4)C2)c2ccccc2)cc1` [zamifenacin]: in assay [1], the mCherry is 102%. In assay [2], the percent effect was -0.543%.
On the same counts, the results for `CN(C)CCN1C(=O)c2ccccc2N(C)c2ccccc21` [dibenzepin] are 71.6% and -0.705%.
Turning to `C[C@]12C=CC(=O)N[C@@H]1CC[C@@H]1[C@@H]2CC[C@]2(C)[C@@H](C(=O)Nc3cc(C(F)(F)F)ccc3C(F)(F)F)CC[C@@H]12` [dutasteride], the mCherry in assay [1] is 82.2% and 93.6%. The percent effect in assay [2] was -2.57% and -8.77%.
Molecule `COC(=O)[C@H]1[C@H]2C[C@@H]3c4[nH]c5ccccc5c4CCN3C[C@H]2C[C@@H](OC(=O)c2cc(OC)c(OC)c(OC)c2)[C@@H]1OC` [deserpidine] had a mCherry in assay [1] of 95.7%. Besides, in assay [2], the percent effect is -7.34%.
On the same counts, the results for `CO[C@@H]1[C@@H](O[C@@H]2O[C@H](C)[C@@H](O[C@H]3C[C@@](C)(O)[C@@H](OC(=O)CC(C)C)[C@H](C)O3)[C@H](N(C)C)[C@H]2O)[C@@H](CC=O)C[C@@H](C)[C@@H](O)/C=C/C=C/C[C@@H](C)OC(=O)C[C@H]1OC(C)=O` [Josamycin] are 103% and -1.74%.
On the same counts, the results for `CC(=O)OCC1=C(C(=O)O)N2C(=O)[C@@H](NC(=O)CSc3ccncc3)[C@H]2SC1` are 128% and 1.86%.
`CC(C)CC1Nc2cc(Cl)c(S(N)(=O)=O)cc2S(=O)(=O)N1` (configuration not stated) [butizide] registered a mCherry in assay [1] of 73.6%. Besides, the percent effect in assay [2] was -1.18%.
The molecule `NC[C@H]1O[C@H](O[C@H]2[C@H](O)[C@@H](O[C@H]3O[C@H](CO)[C@@H](O)[C@H](N)[C@H]3O)[C@H](N)C[C@@H]2N)[C@H](N)[C@@H](O)[C@@H]1O` [bekanamycin] registered a mCherry in assay [1] of 110%. The percent effect in assay [2] was -5.92%.
`C[C@@H]1C/C=C/C=C/C=C/C=C/[C@H](O[C@@H]2O[C@H](C)[C@@H](O)[C@H](N)[C@@H]2O)C[C@@H]2O[C@](O)(C[C@@H](O)C[C@H]3O[C@@H]3/C=C/C(=O)O1)C[C@H](O)[C@H]2C(=O)O` registered a mCherry in assay [1] of 105%. Further, the percent effect in assay [2] is -4.29%.
With `CN(C)[C@@H]1C(=O)C(C(N)=O)=C(O)[C@@]2(O)C(=O)C3=C(O)c4c(O)ccc(Cl)c4[C@@H](O)[C@H]3C[C@@H]12`, in assay [1], the mCherry was 107%. Also, the percent effect in assay [2] was -2.3%.
`CO[C@H]1/C=C/O[C@@]2(C)Oc3c(C)c(O)c4c(O)c(c(/C=N/N5CCN(C)CC5)c(O)c4c3C2=O)NC(=O)/C(C)=C\C=C\[C@H](C)[C@H](O)[C@@H](C)[C@@H](O)[C@@H](C)[C@H](OC(C)=O)[C@@H]1C`: the mCherry in assay [1] is 90.9%. Besides, the percent effect in assay [2] was -4.18%.
`COc1ccc(-c2ccc3cc(C(=O)O)ccc3c2)cc1C12CC3CC(CC(C3)C1)C2` [adapalene]: in assay [1], the mCherry was 102% and 80.2%. Moreover, in assay [2], the percent effect is -3.84% and -1.6%.
In the case of `CCC1(c2c[nH]cn2)Cc2ccccc2C1` [atipamezole], the mCherry in assay [1] was 69.3%. Besides, in assay [2], the percent effect is -3.73%.
Consider `CC[C@H]1OC(=O)[C@H](C)[C@@H](O[C@H]2C[C@@](C)(OC)[C@@H](O)[C@H](C)O2)[C@H](C)[C@@H](O[C@@H]2O[C@H](C)C[C@H](N(C)C)[C@H]2O)[C@](C)(O)C[C@@H](C)C(=O)[C@H](C)[C@@H](O)[C@]1(C)O` [erythromycin], for which the mCherry in assay [1] was 84.7% and 92.1%. Further, the percent effect in assay [2] was -2.13% and -1.19%.
For `CN1CCC[C@@H]1CCO[C@](C)(c1ccccc1)c1ccc(Cl)cc1` [Clemastine], the mCherry in assay [1] was 78.5%. The percent effect in assay [2] is -4.63%.
In turn, `COc1cc(C(=O)OCCN2CCN(CCCN3c4ccccc4Sc4ccc(Cl)cc43)CC2)cc(OC)c1OC` [metofenazate] gave a mCherry in assay [1] of 33.6%. The percent effect in assay [2] stood at 6.68%.
On the same counts, the results for `CC[C@H]1OC(=O)C[C@@H](O)[C@H](C)[C@@H](O[C@@H]2O[C@H](C)[C@@H](O[C@H]3C[C@@](C)(O)[C@@H](O)[C@H](C)O3)[C@H](N(C)C)[C@H]2O)[C@@H](CC=O)C[C@@H](C)C(=O)/C=C/C(C)=C/[C@@H]1CO[C@@H]1O[C@H](C)[C@@H](O)[C@@H](OC)[C@H]1OC` [Tylosin] are 73.4% and -9.06%.
On the same counts, the results for `CC(O)(P(=O)(O)O)P(=O)(O)O` [Etidronate] are 75.5% and -4.17%.
In assay [1], `COc1ccc(/C=C/C(=O)c2ccc(OC)cc2OC)cc1` [metochalcone] came in with a mCherry of 93.2%. In addition, the percent effect in assay [2] was -5.38%.
The corresponding values for `CCc1ncnc2cc(OC)c(OC)cc12` [quazodine] are 87.2% and -6.52%.
The corresponding values for `N[C@@H](Cc1c[nH]c2ccc(O)cc12)C(=O)O` [oxitriptan] are 102% and -1.68%.
On the same counts, the results for `CCN(CC)CCOc1ccc2c(c1)C(=O)c1cc(OCCN(CC)CC)ccc1-2` are 104% and -2.59%.
With `NNC(=O)c1ccncc1` [isoniazid], the mCherry in assay [1] was 90.1% and 99.8%. Also, in assay [2], the percent effect is -3.42% and -9.43%.
The molecule `CO/N=C(\C(=O)N[C@@H]1C(=O)N2C(C(=O)O)=CCS[C@H]12)c1csc(N)n1` [Cefizox] registered a mCherry in assay [1] of 116%. For the same molecule, in assay [2], the percent effect is -2.01%.
On the same counts, the results for `O=C(O)c1cc(=O)c2c(OCC(O)COc3cccc4oc(C(=O)O)cc(=O)c34)cccc2o1` are 95.8% and 2.16%.
`CCOC(=O)O[C@]1(C(=O)COC(=O)CC)CC[C@H]2[C@@H]3CCC4=CC(=O)C=C[C@]4(C)[C@H]3[C@@H](O)C[C@@]21C` [prednicarbate] gave a mCherry in assay [1] of 74%. For the same molecule, the percent effect in assay [2] turned out to be 0.171%.
